PubChem BioAssay AID1347426 (Functional Genomics Laboratory (NCATS/FGL), 2020)
The whole screen tested about 31,000 sequences, of which about 1,400 (4.5%) were called active.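 Rule for the calls: active = median seed-adjusted z-score above 1 or below -1; inactive = the rest.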 The list shows a part of the results.

Assay: Novel Modifiers of Survival Motor Neuron (SMN) Protein: Gene Identification via Genome-wide siRNA Screen;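 note: luminescence tracks full-length SMN protein made from the SMN2 reporter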
Details: HEK293T SMN2-luciferase reporter, siRNA knockdown, 72 h; actives lie on both sides
Procedure, shortened: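 Steps: spot 1 pmol siRNA, add Lipofectamine RNAiMax in serum-free DMEM, seed HEK293T SMN2–luciferase reporter cells; incubate 72 h at 37 °C; add ONE-Glo; normalize luminescence to control siRNA, log10, MAD. Candidates: |MAD| > 1.0.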

| Sequence | median seed-adjusted z-score |
| --- | --- |
| CGGCUGCUACAAUGCCUUUTT against RNF31 | inactive: -0.687 |
| GGCUUGUGCAGACAUAAGATT against OMA1 | inactive: 0 |
| GCAGAGGAUUCUUCAAGCATT against TCOF1 | inactive: 0.819 |
| GGAUCAAGACGUGAACGAUTT against CPSF6 | active: -2.38 |
| CACCUCCAAUCAUAGGAUATT against NPAS2 | inactive: 0.222 |
| GGCGAUUACUGCAAUCUUUTT against MFN1 | inactive: 0.21 |
| GCAUAGCUAUUCCUGUUGATT against TSC22D2 | inactive: 0 |
| GGCCGUGCAGUUAAAGAAATT against TTLL6 | inactive: -0.661 |
| CAGGAAUCAUUAGGCAAUATT against PJA2 | inactive: 0 |
| CAAAUUACCUUAGACUUCATT against ZNF101 | inactive: 0.336 |
| GCCUAGCAUUGCAAAACGATT against PPP2R5A | inactive: 0.37 |
| GAAGGAUGGGUGGACGUAATT against NALCN | inactive: -0.266 |
| GCCUGGUUCCGCUACUUCATT against ALDH3B1 | inactive: 0.148 |
| GAGUAUUCUGAGUACAUGATT against ZFP42 | inactive: -0.537 |
| CACUCUUUAUGAGUCGGAATT against SEC23IP | inactive: -0.0226 |
| CACUGGAGACUUUCGCUUUTT against ZNF813 | inactive: 0.127 |
| GCAACCUCAUUAUCCGCUATT against ITIH4 | inactive: 0.64 |
| GGCCUGACAUGCUAAUAGATT against XPO5 | inactive: -0.031 |
| CGUUCGACCUGAUCGCAAATT against ODZ2 | inactive: -0.0233 |
| CAACAUACUUGAAUCAAGATT against CPOX | inactive: -0.135 |
| CUGAAUCUCUCUGACCAUUTT against SCRT2 | inactive: 0.404 |
| GGCUCAAGUUAAAAGUGGATT against TGFB1 | inactive: 0 |

A section from the list above, for reference:

| Sequence | median seed-adjusted z-score |
| --- | --- |
| GGCCUGACAUGCUAAUAGATT against XPO5 | inactive: -0.031 |
| CGUUCGACCUGAUCGCAAATT against ODZ2 | inactive: -0.0233 |
| CAACAUACUUGAAUCAAGATT against CPOX | inactive: -0.135 |

Going on with the list:

| Sequence | median seed-adjusted z-score |
| --- | --- |
| GGCUAGAGCUUGAUAAUAATT against RNF2 | inactive: 0.354 |
| GGGUAUGAAUAUCUCUAUATT against IL23R | inactive: 0.512 |
| GGAUCCUUACUUCUUGUCATT against COQ2 | inactive: -0.0121 |
| GAAAGAGAGAAGUACCGAATT against SENP2 | inactive: 0 |
| GCCCUUUAUUCAACGGGAATT against LIPH | inactive: 0.0437 |
| AGACCGUGAUGGACAUCGATT against DECR2 | inactive: 0 |
| GGGUUCCAGUAACCAGUGATT against RPP21 | active: -1.09 |
| GGAGGAAAAUUUGACAUUATT against P2RX7 | inactive: -0.527 |
| GGAUAAUGAAUUCAAGACATT against CYBB | inactive: 0.0487 |
| GCGUGGAAAUUGUACCCGUTT against MBNL3 | inactive: -0.189 |
| GUGCAUAAGUGUUAGGGAATT against SLC17A2 | inactive: 0.141 |
| GGAUCGGUAUGUAGCAAUATT against HTR2C | inactive: -0.115 |
| GCUCUUUAAGGAUGGGAAATT against PTGS1 | inactive: 0.0458 |
| GCACAGUAACGAUGACGAUTT against EIF4B | inactive: -0.374 |
| GAAGCUUCCAGGAUAAAAATT against TNFRSF10D | inactive: 0.0234 |
| CGUGGGCUCCAUUGAGACATT against NKIRAS2 | inactive: 0.111 |
| CUAUGAGUCAUAUAGGUAUTT against IFT88 | inactive: 0.189 |
| GAGGCGCUCUCUGAGGAAATT against GUK1 | inactive: -0.339 |
| GCGAUUCUCUGUGACCACUTT against CYP2B6 | inactive: 0.454 |
| GAACGGUCAAGAAAGAGUATT against DNAJB6 | inactive: -0.251 |
| AGGUACCGAUUUCUGCUAATT against HOXB8 | inactive: 0.133 |
| GACUUGACCCUGGAUGACATT against SERTAD2 | inactive: 0.43 |

Pulled one by one from above:

| Sequence | median seed-adjusted z-score |
| --- | --- |
| GACUUGACCCUGGAUGACATT against SERTAD2 | inactive: 0.43 |
| GAGGCGCUCUCUGAGGAAATT against GUK1 | inactive: -0.339 |

Following part.

| Sequence | median seed-adjusted z-score |
| --- | --- |
| GGAUAAUACAGUUCGAUUATT against TAF5 | inactive: -0.192 |
| CCAUCUCAGGAGUUAGCUATT against ZNF281 | active: 1.19 |
| CAUGGAAUCUUAUGAACUUTT against MGP | inactive: -0.0854 |
| GGUUGCAACUCAUGAGAUUTT against MMP26 | inactive: 0.0881 |
| GACCCUUACAGGAUUGAAATT against CDC23 | inactive: 0.0112 |
| GCUCAGCUUAAGUCCCUGATT against DCTN1 | inactive: 0.25 |
| GGACAUGCACUAUUACCAATT against RRAGB | inactive: 0 |
| CAGCGAAUGUAACAGUACATT against FAT1 | inactive: -0.00397 |
| CCGCCCAAGUAGUAAAGAATT against ADCY3 | inactive: -0.294 |
| CUGAGUAACUGUGCCCGGATT against RXFP4 | inactive: -0.315 |
| GCUGAGUCUUUCACCAAUATT against CCNO | inactive: -0.594 |
| GCAUCAGGUUUGUCACCUATT against ASTL | inactive: 0.722 |
| GAACAAAUCUGCGAGAUCATT against DIRAS2 | active: -1.25 |
| CCUAUAGACGUGGAAAUAATT against PCDHGA7 | inactive: 0.705 |
| GAGAAUCACUCCAAUCGAATT against HIPK2 | inactive: 0.156 |
| CUGCAUCACCUGUAUCUAUTT against EGLN2 | inactive: -0.349 |
| GAACUGUCGUAAACGCAAATT against NFE2L3 | inactive: 0.118 |
| GCUUCAUCAGUAACAAUCATT against TMEM123 | inactive: 0.292 |
| GCAUAGAUCCUGGUUCCCATT against ZNF408 | inactive: 0.00381 |
| GGUCAUAGCCUACUGUCUATT against SLC32A1 | inactive: -0.251 |
| GGAUCAUUACAGAGGCAAATT against DNAH9 | inactive: 0.656 |
| CCAACAGGGAGGAAACACATT against GH1 | inactive: -0.394 |

| Sequence | median seed-adjusted z-score |
| --- | --- |
| AGAUCCAUGUCCCAAUAUATT against GJB5 | inactive: 0.338 |
| CUACUACAGUACUUCCUGATT against RNF39 | inactive: 0.297 |
| CCUUCGCUGCUACACCCAATT against LHX1 | inactive: 0 |
| GCCUCACACCAGAAAUAUUTT against DLK2 | inactive: -0.695 |
| CGAGAAGUGUUAGCUCGAATT against RNF111 | inactive: -0.0687 |
| GAAUAGGCAAGGUUUUAUUTT against VAX1 | inactive: 0.937 |
| CACGUGUCCUGAAGACAAATT against CLIC2 | inactive: -0.0124 |
| CCGUGAGGGAGUUUACUUUTT against GPHB5 | inactive: -0.533 |
| GGCAGACACUUACCGAAAATT against XRCC1 | inactive: 0.0431 |
| GCAGGACGGUUUGUUUUCATT against PTGES2 | inactive: -0.02 |
| AGGUCUCAGCCUAUCUCAATT against TMPRSS4 | inactive: -0.54 |
| GCUCAAUUGUCGAUCUUUATT against ERO1LB | inactive: 0.565 |
| CAGUCGUGCUAGUUCCUCATT against SNX9 | inactive: 0.684 |
| CCAACUCUUGUGCAACUCATT against BAP1 | inactive: -0.374 |
| GCGGUACAGUGGAAUCUUUTT against SLC26A5 | inactive: -0.252 |
| GAAGAGAUAUUUACACCUUTT against CD47 | inactive: 0.0241 |
| CUUAGUCAGUGUACCCGAATT against PCDHGB5 | inactive: 0.464 |
| GAAUCCAAUGAGUUUACUATT against INPP1 | inactive: -0.047 |
| GGUUAUGCUUUCUAAUCCATT against UBE2U | inactive: -0.0545 |
| GACUACGACUGGUUCUUCATT against CSGLCA-T | inactive: 0.146 |
| GCUCGAACCAGAAUGUCAATT against EEF2K | inactive: 0 |
| GGAUGAUGUUUAUCGUGCUTT against ZNF507 | inactive: -0.262 |

| Sequence | median seed-adjusted z-score |
| --- | --- |
| GAAGAGAACUUCUGCCGUATT against MST1 | active: -1.47 |
| ACCGCUAUGUCUACAUGUUTT against FADS6 | inactive: -0.637 |
| GGUCUUCGGUCUAAACUCATT against ZNF83 | inactive: 0.118 |
| AGCUAGACAUCACACCCAATT against POU6F1 | inactive: 0.978 |
| GAGAACCAGUUAUCCAACATT against PIR | inactive: 0.169 |
| CGGUAUAAUCGGAAUCGGATT against MKI67IP | inactive: 0.426 |
| GCUGUUCACCGGCAUCGAATT against TSKS | inactive: -0.0409 |
| ACCCAGACCCUAUCUUUGATT against NOG | inactive: 0.328 |
| ACCGGAUUAUUUUUCCAAATT against LRP10 | inactive: 0.109 |
| AACUCGCUGUUGUACCUGATT against CPSF1 | active: 3.29 |
| AAAGCAGUAUGUCAUUAAATT against ZNF146 | inactive: 0.23 |
| GGUUAUUUUGGGACAAAGATT against BPIL2 | inactive: -0.63 |
| CAAUUGGAAUAGUCAUCAATT against SLC10A5 | inactive: 0.539 |
| GGAACGAUACAAUAGUCAATT against PMS1 | inactive: 0.0538 |
| CAACGUACCCAUUCCGGAATT against PRKCA | inactive: -0.249 |
| GCUCGAUCCCUGCAGAUUATT against LCOR | inactive: -0.0435 |
| CAAGUACUUUCUCAAGAUUTT against FGF10 | inactive: 0 |
| GAGACGGUUUCCAAAUGAATT against HSPB9 | inactive: 0.262 |
| AGUGCAUGACGGAACAAUATT against PTGDS | inactive: 0.48 |
| GCCGAGUUCUGUUUCCUCUTT against COQ6 | inactive: -0.0116 |

A few values from the entries so far:
median seed-adjusted z-score, GGCUCAAGUUAAAAGUGGATT against TGFB1 is entered as inactive: 0
median seed-adjusted z-score, GGUUGCAACUCAUGAGAUUTT against MMP26 is entered as inactive: 0.0881
